{"source": "patent US20030032601A1", "about": "“Method for isolating sponge collagen and producing nanoparticulate collagen, and the use thereof” (priority 2000, published 2003)", "assay": "Thio-barbituric acid (TBA) antioxidant test", "format": "biochemical", "conditions": "trilinolenin, 4 hours at 37° C.", "note": "At least one structure is not confirmed: it was looked up by name or label, or the drawing left a doubt."}
{"smiles": "Cc1cc(C(C)(C)C)c(O)c(C(C)(C)C)c1", "note": "[BHT, butylhydroxytoluene]", "values": [{"measurement": "% inhibition (±SD) of the formation of TBA reactive material", "setting": "Concentration 5 μM", "result": "71 (±1.5) %"}, {"measurement": "% inhibition (±SD) of the formation of TBA reactive material", "setting": "Concentration 10 μM", "result": "73 (±2.1) %"}, {"measurement": "% inhibition (±SD) of the formation of TBA reactive material", "setting": "Concentration 20 μM", "result": "79 (±0.3) %"}, {"measurement": "% inhibition (±SD) of the formation of TBA reactive material", "setting": "Concentration 50 μM", "result": "85 (±0.5) %"}]}
